Experimental data from the supplement of paper PMC12889115.
This is one part of the list. These are raw signals, not scaled to a control.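 First-pass screen: polymyxin B was added at a level that permeabilizes the Salmonella outer membrane while sparing the inner membrane. DMSO wells, with and without polymyxin B, defined maximum growth. Because plates differed from one another, each plate's data were ranked separately and the compounds with the lowest OD600 were carried forward as hits.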

System: Salmonella enterica serovar Typhimurium SL1344
Experiment: bacterial growth OD600 after 18 h with compound and polymyxin B; higher = more bacterial growth (less inhibition)
Conditions: 50 µM, Mueller-Hinton broth

Row | SMILES | bacterial growth OD600 (polymyxin B 1 µg/mL) | bacterial growth OD600 (polymyxin B 0.75 µg/mL)
1 | CN(C(=O)c1cccc(Cl)c1)C1CCCN(C2Cc3ccccc3C2)C1 (stereo not given) | 1.17 | –
2 | Cc1nnc(SCCNC(=O)c2coc(Cn3cnc4ccccc43)n2)s1 | 0.684 | –
3 | O=C(Nc1ccccc1Oc1cccnc1)C1CCCN(C(=O)CCc2ccncc2)C1 (stereo not given) | – | 0.805
4 | CCc1nc2cc(C(=O)N(C)CCc3ccccn3)cc(NC(=O)c3ccccc3OC)c2n1C | – | 0.811
5 | C=C(C)CN(C)Cc1cnc(S(=O)(=O)CC)n1CCc1ccccc1 | 0.536 | –
6 | CCn1ccnc1CNc1nc2nonc2nc1N1CCCC1 | – | 0.954
7 | c1ccc(CCC2CCCCN2Cc2nc(-c3ccc4c(c3)OCO4)no2)nc1 (stereo not given) | 0.078 | –
8 | O=C(Nc1ccc(-n2cccn2)cc1)C1CCCCN1Cc1cccnc1 (stereo not given) | 1.05 | –
9 | COCCCNc1nc2nonc2nc1NCc1ccc(Cl)s1 | – | -0.002
10 | COc1ccc(F)c(CN2CCC(n3nccc3NC(=O)C3CCCC3)CC2)c1 | – | 0.706

From no. 7 up to 8, copied from above:
Row | SMILES | bacterial growth OD600 (polymyxin B 1 µg/mL) | bacterial growth OD600 (polymyxin B 0.75 µg/mL)
7 | c1ccc(CCC2CCCCN2Cc2nc(-c3ccc4c(c3)OCO4)no2)nc1 (stereo not given) | 0.078 | –
8 | O=C(Nc1ccc(-n2cccn2)cc1)C1CCCCN1Cc1cccnc1 (stereo not given) | 1.05 | –
